# Data: the supplement of paper PMC8166895
# Where a name gives a salt, the structure may show the parent alone. The list shows a part of the results. Most entries show no effect beyond the scatter of the controls.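 A single-replicate pilot screen of approved drugs and clinical or known-target compounds measured melting temperature via differential scanning fluorimetry. Top stabilizing hits raised the melting point by 2 °C or more; negative shifts indicate destabilization.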
# Tested on: SARS-CoV-2 main protease (Mpro, nsp5)
# Assay: thermal shift ΔTm of Mpro relative to plate average Tm; higher = stronger thermal stabilization of Mpro (binding)
# Settings: 10 µM; protein concentration 1 µM
row,SMILES,thermal shift ΔTm of Mpro
1,CN(C)c1ccc2nc3ccc(=[N+](C)C)cc-3sc2c1 [Methylene Blue],0.0458 °C
2,CN(C)c1ccc2nc3ccc(=[N+](C)C)cc-3sc2c1 [Methylene Blue trihydrate],-0.157 °C
3,COc1cc(/C=C/C(=O)N2CCC=CC2=O)cc(OC)c1OC [Piperlongumine],-0.214 °C
4,N#Cc1ccc2[nH]cc(CCCCN3CCN(c4ccc5oc(C(N)=O)cc5c4)CC3)c2c1 [Vilazodone HCl],0.554 °C
5,N#Cc1ccc2[nH]cc(CCCCN3CCN(c4ccc5oc(C(N)=O)cc5c4)CC3)c2c1 [Vilazodone],-0.023 °C
6,CN1C(C(=O)Nc2ccccn2)=C(O)c2sccc2S1(=O)=O [Tenoxicam],0.3 °C
7,CC(C)c1cc2c(c(O)c1O)[C@@]13CCCC(C)(C)[C@@H]1[C@H](OC3=O)[C@H]2O [Rosmanol],0.0817 °C
8,Cc1ncc([N+](=O)[O-])n1CC(O)CCl (stereo unspecified) [Ornidazole],0.263 °C
9,O=C(c1ccc2nccnc2c1)N1CCCCC1 [Ampalex],0.141 °C
10,C[C@]12C=CC(=O)C=C1CC[C@@H]1[C@@H]2[C@@H](O)C[C@@]2(C)[C@H]1CC[C@]2(O)C(=O)COP(=O)(O)O [Prednisolone phosphate sodium],0.0858 °C
11,N=C(N)N [Guanidine HCl],0.193 °C
12,Cc1c(C(N)=O)cc([N+](=O)[O-])cc1[N+](=O)[O-] [Dinitolmide],-0.117 °C
13,Oc1ccc(Cl)c2c1CCC2 [Chlorindanol],-0.129 °C
14,Cn1c(=O)c2[nH]cnc2n(C)c1=O [Aminophylline],-0.0272 °C
15,CS(=O)(=O)c1ccc(C2=C(c3ccccc3)C(=O)OC2)cc1 [Rofecoxib],-0.0932 °C
16,CC(=O)c1cc([N+](=O)[O-])c(Sc2cccc(Cl)c2Cl)s1,0.0931 °C
17,Cc1ccnc2c1NC(=O)c1cccnc1N2C1CC1 [Nevirapine],0.0402 °C
18,CN(C)CCC=C1c2ccccc2CCc2ccccc21 [Amitriptyline HCl],-0.14 °C
19,C#C[C@]1(O)CC[C@H]2[C@@H]3CCc4cc(OC5CCCC5)ccc4[C@H]3CC[C@@]21C [Quinestrol],-0.145 °C
20,CC(C)[C@H](CO)Nc1nc(Nc2cccc(Cl)c2)c2ncn(C(C)C)c2n1 [Purvalanol A],-0.0804 °C
21,Cc1[nH]c(=O)c(C#N)cc1-c1ccncc1 [Milrinone],-0.0494 °C

row,SMILES,thermal shift ΔTm of Mpro
1,OC(c1ccccc1)(c1ccccc1)C1CCNCC1 [Azacyclonol],0.047 °C
2,Cc1cccc(/C=N/Nc2cc(N3CCOCC3)n3nc(-c4ccncc4)cc3n2)c1,0.0209 °C
3,CCCOc1ccc2c(c1)CC[C@@H]1[C@@H]2CC[C@]2(C)[C@@H](OC)CC[C@@H]12 [Promestriene],0.221 °C
4,OCCNC1CCCc2c1[nH]c1ccc(-c3ccccc3)cc21 (stereo unspecified),-0.105 °C
5,Cn1cc(C(=O)Nc2ccc3c(c2)OCCO3)c2ccccc2c1=O,-0.0846 °C
6,O=C(Nc1ccccc1)c1ccccc1O [Salicylanilide],0.241 °C
7,COc1ccccc1OCCN [Carvedilol EP IMpurity E],-0.243 °C
8,COc1ccccc1C(=O)Nc1cccc(NC(=O)c2cccc(C)c2)c1,-0.451 °C
9,FC(F)(F)c1ccc(CNc2ccc(Cc3c[nH]c4ncc(Cl)cc34)cn2)cn1 [Pexidartinib (PLX3397)],0.455 °C
10,COCC1=C(C(=O)OC(C)OC(=O)OC(C)C)N2C(=O)[C@@H](NC(=O)/C(=N\OC)c3csc(N)n3)[C@H]2SC1 (stereo partly specified) [Cefpodoxime proxetil],0.139 °C
11,CCN(CC)CCOC(=O)C(c1ccccc1)C1CCCCC1 (stereo unspecified) [Drofenine hydrochloride],0.117 °C
12,COc1ccc([C@H]2CNC(=O)C2)cc1OC1CCCC1 [S- (+)-Rolipram],0.195 °C
13,O=C(O)c1cc(F)c2nc(N3[C@@H]4CC[C@H]3C[C@@H](OCc3c(-c5ccccc5OC(F)(F)F)noc3C3CC3)C4)sc2c1 [Tropifexor],-0.691 °C
14,COc1ccc(S(=O)(=O)NCc2ccc(C(=O)NCCc3ccc(Cl)cn3)cc2)cc1,0.0278 °C
15,COc1cc2c(cc1OC)CN(CCc1ccc(NC(=O)c3cc(OC)c(OC)cc3NC(=O)c3cnc4ccccc4c3)cc1)CC2 [Tariquidar],-0.147 °C
16,CN(C(=O)c1ccc(F)cc1C(F)(F)F)C1CCN(c2nnc(-c3ccnn3C)c3ccccc23)CC1 [Taladegib],-0.0128 °C
17,C[C@@H](Oc1cc(-n2cnc3ccc(CN4CCN(C)CC4)cc32)sc1C(N)=O)c1ccccc1C(F)(F)F,-0.343 °C
18,COc1cc(OC)c(OC)cc1C=O [Asaraldehyde],0.0687 °C
19,CNCC[C@H](Oc1cccc2ccccc12)c1cccs1 [Duloxetine HCl],0.0734 °C
20,C[N+]1(C)CCCC(OC(=O)C(O)(c2ccccc2)c2ccccc2)C1 (stereo unspecified) [Mepenzolate Bromide],-0.043 °C

# Given with tabs: part of the list above
row	SMILES	thermal shift ΔTm of Mpro
5	Cn1cc(C(=O)Nc2ccc3c(c2)OCCO3)c2ccccc2c1=O	-0.0846 °C
6	O=C(Nc1ccccc1)c1ccccc1O [Salicylanilide]	0.241 °C
